Measurements as given in PubChem BioAssay AID330 (DTP/NCI, 2004).
The list is a part of this screen's results and no random one: it is rich in T/C values a quarter to a half above the control, in often repeated tests (any T/C) and in doses without a T/C. Other doses and runs of a compound stand elsewhere. T/C is the treated group as % of the vehicle group. Some entries give survivors of the animals treated and no T/C: the source holds a T/C of zero for them, seemingly a mark for toxic or unscored doses. Some doses without a T/C left all or most animals alive at the check, yet need not have been tolerated: survival well below the control is almost never listed, so the zero probably covers shortened survival too. Survivors were counted at the toxicity check, usually on the fifth day, unless a day is given; later deaths do not show. Schedules are NCI's codes, read here as Q, the interval in days (D) or hours (H), X, the number of doses. Some entries hold several experiments; their values stand side by side, smallest first. Where survival is the endpoint, this PubChem deposit counts one and a half times the control or more as active, and values a quarter to a half above the control carry no call in these data; other NCI protocols may use other cut-offs. Additions like (4×) stand for listed records that agree. Some T/C values carry the count of animals alive at the toxicity check (mostly the fifth day); without a count, all were alive then.

Test system: P388 leukemia ip, CD2F1 mice, survival T/C
Test: NCI In Vivo Anticancer Drug Screen. Data for tumor model P388 Leukemia (intraperitoneal) in CD2F1 (CDF1) mice
Conditions: T/C endpoint: median survival time, higher T/C = longer survival
[1] = dose: 400.0 mg/kg/injection, schedule: Q04DX003 (ip), vehicle: Klucel (hydroxypropylcellulose) (HPC)
[2] = dose: 200.0 mg/kg/injection, schedule: Q01DX009 (ip), vehicle: Klucel (hydroxypropylcellulose) (HPC)
[3] = dose: 200.0 mg/kg/injection, schedule: Q01DX005 (ip), vehicle: saline with Tween-80
[4] = dose: 200.0 mg/kg/injection, schedule: Q01DX005 (ip), vehicle: Klucel (hydroxypropylcellulose) (HPC)
[5] = dose: 240.0 mg/kg/injection, schedule: Q01DX005 (ip), vehicle: saline with Tween-80
[6] = dose: 200.0 mg/kg/injection, schedule: Q01DX009 (ip), vehicle: saline
[7] = dose: 100.0 mg/kg/injection, schedule: Q01DX005 (ip), vehicle: Klucel (hydroxypropylcellulose) (HPC)
[8] = dose: 1.56 mg/kg/injection, schedule: Q01DX009 (ip), vehicle: saline
[9] = dose: 6.25 mg/kg/injection, schedule: Q01DX009 (ip), vehicle: saline
[10] = dose: 30.0 mg/kg/injection, schedule: Q01DX005 (ip), vehicle: saline with Tween-80
[11] = dose: 60.0 mg/kg/injection, schedule: Q01DX005 (ip), vehicle: saline with Tween-80

SMILES: CCCCCCC(Cn1ccnc1)c1ccc(Br)cc1 (stereo unspecified)
- survivor count (dose: 400.0 mg/kg/injection, schedule: Q04DX003 (ip), vehicle: saline with Tween-80): 0 of 6

SMILES: CCC1CCC2COCN2C1 (stereo unspecified)
- T/C (dose: 50.0 mg/kg/injection, schedule: Q01DX005 (ip), vehicle: saline): 125 % of control
- T/C (dose: 100.0 mg/kg/injection, schedule: Q01DX005 (ip), vehicle: saline): 127 [5 of 6 alive] and 134 % of control

SMILES: COC(=O)/C(=C/Cl)NC(C)=O
- survivor count (dose: 100.0 mg/kg/injection, schedule: Q01DX001 (ip), vehicle: suspension in saline): 6 of 6
- survivor count (dose: 400.0 mg/kg/injection, schedule: Q01DX001 (ip), vehicle: suspension in saline): 6 of 6

SMILES: Nc1ccn([C@@H]2C=C(CO)[C@@H](O)[C@H]2O)c(=O)n1
- T/C (dose: 0.25 mg/kg/injection, schedule: Q01DX009 (ip), vehicle: saline): 130 % of control
- T/C (dose: 0.44 mg/kg/injection, schedule: Q01DX009 (ip), vehicle: saline): 126 % of control
- T/C (dose: 0.67 mg/kg/injection, schedule: Q01DX009 (ip), vehicle: saline): 137 % of control
- T/C (dose: 1.0 mg/kg/injection, schedule: Q01DX009 (ip), vehicle: saline): 147 % of control

SMILES: C[N+](C)(C)/N=C(/CCC/C(=N\[N+](C)(C)C)c1ccccc1)c1ccccc1
- survivor count (dose: 100.0 mg/kg/injection, schedule: Q04DX003 (ip), vehicle: Klucel (hydroxypropylcellulose) (HPC)): 0 of 6
- survivor count (dose: 200.0 mg/kg/injection, schedule: Q04DX003 (ip), vehicle: Klucel (hydroxypropylcellulose) (HPC)): 0 of 6
- survivor count [1]: 0 of 6

SMILES: CC(=O)NC1CC(=O)N(c2ccc(Cl)cc2)C1=O (stereo unspecified)
- T/C [2]: 125 % of control
- survivor count [1]: 3 of 6

SMILES: S=C(NNc1nnc(-c2ccccc2)c(-c2ccccc2)n1)Nc1ccccc1
- survivor count (dose: 100.0 mg/kg/injection, schedule: Q01DX005 (ip), vehicle: saline with Tween-80): 6 of 6
- survivor count [3]: 6 of 6

SMILES: CC1NC(=O)OC12CCCCC2 (stereo unspecified)
- survivor count (dose: 100.0 mg/kg/injection, schedule: Q01DX009 (ip), vehicle: saline with Tween-80): 0 of 6
- survivor count (dose: 200.0 mg/kg/injection, schedule: Q01DX009 (ip), vehicle: saline with Tween-80): 0 of 6

SMILES: Cc1ccc(C2=C(C#N)C(c3ccccc3)C(C#N)=C(N)O2)cc1 (stereo unspecified)
- survivor count [4]: 5 of 5

SMILES: CC(=O)c1ccc(N=C(C#N)C2=C(O)c3ccccc3C2=O)cc1
- survivor count [5]: 2 of 6

SMILES: NC(=O)N=Nc1c(F)c(F)c(F)c(F)c1F
- survivor count [3]: 1 of 5

SMILES: N/C(Cc1noc2ccc(F)cc12)=N\O
- survivor count [6]: 0 of 6

SMILES: CNc1[nH]c(=O)[nH]c(=O)c1[N+](=O)[O-]
- survivor count [7]: 0 of 5
- survivor count [4]: 0 of 5

SMILES: COc1ccc(CC(N)C(=O)OCc2ccccc2)cc1N(CCCl)CCCl (stereo unspecified)
- T/C [8]: 97, 98 [5 of 6 alive], 100, 107 % of control
- survivor count [8]: 5 of 6
- T/C (dose: 3.12 mg/kg/injection, schedule: Q01DX009 (ip), vehicle: saline): 94, 98, 101, 104 % of control (2×)
- T/C [9]: 96, 97, 100, 104 % of control
- survivor count [9]: 6 of 6
- T/C (dose: 12.5 mg/kg/injection, schedule: Q01DX009 (ip), vehicle: saline): 97, 98, 101, 103, 108 % of control
- T/C (dose: 12.5 mg/kg/injection, schedule: Q01DX009 (ip), vehicle: suspension in saline): 148 % of control [5 of 6 alive]

SMILES: COc1cc2cc(-c3ccc(OC(C)C)c(OC)c3)[n+](C)cc2cc1OC
- survivor count (dose: 400.0 mg/kg/injection, schedule: Q01DX001 (ip), vehicle: saline with Tween-80): 0 of 6

SMILES: Cc1ccc(S(=O)(=O)N/N=C/c2ccc(O)c(O)c2)cc1
- T/C (dose: 400.0 mg/kg/injection, schedule: Q01DX009 (ip), vehicle: other): 128 % of control [5 of 6 alive]

SMILES: O=C(O)CS(=O)(=O)CC(=O)O
- survivor count (dose: 100.0 mg/kg/injection, schedule: Q01DX009 (ip), vehicle: saline): 6 of 6
- survivor count [6]: 3 of 6

SMILES: COC(=O)c1ccccc1N=C/C(Cl)=C(/Cl)C(=O)O
- survivor count (dose: 100.0 mg/kg/injection, schedule: Q01DX009 (ip), vehicle: Klucel (hydroxypropylcellulose) (HPC)): 5 of 6
- survivor count [2]: 0 of 6

SMILES: CCN(CC)CCN1C(=O)c2cccc3cc([N+](=O)[O-])cc(c23)C1=O
- T/C (dose: 50.0 mg/kg/injection, schedule: Q01DX005 (ip), vehicle: Klucel (hydroxypropylcellulose) (HPC)): 141 % of control
- survivor count [7]: 5 of 6
- survivor count [4]: 0 of 6

SMILES: COc1ccc2[nH]c3c(C)c4cc[n+](C)cc4c(C)c3c2c1
- T/C (dose: 0.78 mg/kg/injection, schedule: Q01DX009 (ip), vehicle: saline): 131 % of control
- T/C [8]: 130 and 145 % of control
- T/C (dose: 3.13 mg/kg/injection, schedule: Q01DX009 (ip), vehicle: saline): 131 % of control

SMILES: COc1cc(Oc2c(C)c(Cl)c(OC)c(Cl)c2OC)c2c(c1Cl)COC2=O
- survivor count (dose: 60.0 mg/kg/injection, schedule: Q01DX005 (ip), vehicle: Klucel (hydroxypropylcellulose) (HPC)): 6 of 6

SMILES: Cc1nnc2c([N+](=O)[O-])c(N)c(Cl)nn12
- survivor count [10]: 0 of 6
- survivor count [11]: 2 of 6
- survivor count (dose: 120.0 mg/kg/injection, schedule: Q01DX005 (ip), vehicle: saline with Tween-80): 0 of 6
- survivor count [5]: 0 of 6

SMILES: O=C1OC(=O)C2CCC12 (stereo unspecified)
- survivor count (dose: 400.0 mg/kg/injection, schedule: Q01DX009 (ip), vehicle: saline with Tween-80): 2 of 6

SMILES: OCCN1CCN(CCCOC2=Nc3ccccc3O/C2=C/c2ccccc2)CC1
- survivor count (dose: 200.0 mg/kg/injection, schedule: Q04DX003 (ip), vehicle: saline): 2 of 6
- survivor count (dose: 400.0 mg/kg/injection, schedule: Q04DX003 (ip), vehicle: saline): 0 of 6

SMILES: COC(=O)C(NC(=O)C(CO)N1C(=O)c2ccccc2C1=O)c1ccccc1 (stereo unspecified)
- survivor count [3]: 6 of 6

SMILES: CC[N+](C)(CC)CCOC(C)=O
- survivor count (dose: 50.0 mg/kg/injection, schedule: Q01DX001 (ip), vehicle: saline with Tween-80): 2 of 6
- survivor count (dose: 100.0 mg/kg/injection, schedule: Q01DX001 (ip), vehicle: saline with Tween-80): 0 of 6

SMILES: Nc1cc2c(c[n+](CCCCCCCCC[n+]3cc4c5ccccc5c(N)cc4c4ccccc43)c3ccccc23)c2ccccc12
- T/C (dose: 0.39 mg/kg/injection, schedule: Q04DX003 (ip), vehicle: other): 145 % of control
- T/C (dose: 0.78 mg/kg/injection, schedule: Q04DX003 (ip), vehicle: other): 148 % of control
- T/C (dose: 1.56 mg/kg/injection, schedule: Q04DX003 (ip), vehicle: other): 141 % of control
- T/C (dose: 3.13 mg/kg/injection, schedule: Q04DX003 (ip), vehicle: other): 148 % of control
- survivor count (dose: 25.0 mg/kg/injection, schedule: Q04DX003 (ip), vehicle: other): 5 of 6 and 6 of 6

SMILES: COc1cccc2c1C(=O)c1c(O)c3c(c(O)c1C2=O)C[C@@](O)(C(C)=O)C[C@@H]3OC1CC(N2CCCCC2)C(O)C(C)O1 (stereo partly specified)
- T/C (dose: 3.12 mg/kg/injection, schedule: Q04DX003 (ip), vehicle: distilled water + Tween-80): 135 % of control
- T/C (dose: 3.12 mg/kg/injection, schedule: Q04DX003 (ip), vehicle: water): 131 % of control
- survivor count (dose: 50.0 mg/kg/injection, schedule: Q04DX003 (ip), vehicle: distilled water + Tween-80): 6 of 6 on day 9

SMILES: O=C(Nc1ccc(Cl)cc1)Nc1nnc(COc2ccccc2)o1
- survivor count (dose: 15.0 mg/kg/injection, schedule: Q01DX005 (ip), vehicle: saline with Tween-80): 6 of 6
- survivor count [10]: 6 of 6
- survivor count [11]: 6 of 6

SMILES: CCN(CCO)CC1CCCC2CCCCC21 (stereo unspecified)
- survivor count (dose: 240.0 mg/kg/injection, schedule: Q01DX005 (ip), vehicle: saline): 0 of 6
